Data as given in PubChem BioAssay AID1159578 (Peter MacCallum Cancer Centre, 2015).
Test: 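Knock-downs that alter how fast lymphatic endothelial cells migrate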 (primary screen). System: human lymphatic endothelial cells. Reagent: siRNA pool against human genes, 40 nM. Duration: 48 h after transfection. Measured: 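Cells stained with dye and imaged after a scratch; covered wound area and nuclei counted, duplicates averaged, migration set against mock wells and turned into a robust z-score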. Scale: migration robust z-score: higher = faster migration into the scratch; nuclei per well: higher = more cells in the well. Hit rule: 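Migration changed when robust z exceeds 2 or falls below -2 and mean nuclei number is at least 3300; otherwise not called changed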. Meaning of the calls: active = migration changed; inactive = no migration change, or too few cells.
In all, the deposit lists about 18,000 reagents; this is an unselected part. About 1,030 of them (5.7%) were called active. 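Inactive calls also include pools with fewer than 3300 nuclei, whose migration was not assessed.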 The raw values are shown without normalisation. A number with no mark means an inactive call. Not all columns of the deposit are shown.

SLC12A3 — migration robust z-score = -0.18; nuclei per well, duplicate mean = 6483
DYNLT2 (dynein light chain Tctex-type 2) — migration robust z-score = 0.33; nuclei per well, duplicate mean = 6308
JRKL (JRK like) — migration robust z-score = -0.31; nuclei per well, duplicate mean = 5584
BPIFA1 (BPI fold containing family A member 1) — migration robust z-score = 1.17; nuclei per well, duplicate mean = 5204

Reformatted: results already given.
{"gene":"SLC12A3","migration robust z-score":-0.18,"nuclei per well, duplicate mean":6483}
{"gene":"DYNLT2 (dynein light chain Tctex-type 2)","migration robust z-score":0.33,"nuclei per well, duplicate mean":6308}

Further results follow:
RBL1 (RB transcriptional corepressor like 1) — migration robust z-score = 0.57; nuclei per well, duplicate mean = 5048
CDSN (corneodesmosin) — migration robust z-score = -0.08; nuclei per well, duplicate mean = 5040
SFN (stratifin) — migration robust z-score = 0.05; nuclei per well, duplicate mean = 6218
STC1 (stanniocalcin 1) — migration robust z-score = 0.78; nuclei per well, duplicate mean = 5520
LYZL2 (lysozyme like 2) — migration robust z-score = 1.3; nuclei per well, duplicate mean = 6232
ATAD3B (ATPase family AAA domain containing 3B) — migration robust z-score = 1.34; nuclei per well, duplicate mean = 5453
MTX3 (metaxin 3) — migration robust z-score = -0.9; nuclei per well, duplicate mean = 6320
BAZ2A (bromodomain adjacent to zinc finger domain 2A) — migration robust z-score = 0.27; nuclei per well, duplicate mean = 6234
DAAM1 (dishevelled associated activator of morphogenesis 1) — migration robust z-score = -0.82; nuclei per well, duplicate mean = 6719
TAF13 (TATA-box binding protein associated factor 13) — migration robust z-score = 0.8; nuclei per well, duplicate mean = 7108
